{"source": "PubChem BioAssay AID602196 (INSERM, 2012)", "assay": "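Modifiers of cisplatin sensitivity in A549 cells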", "system": "human A549 lung cancer cells", "knock-down reagent": "siRNA pair against human genes", "timing": "48 h transfection before cisplatin; time from cisplatin to read-out not stated", "conditions": "cisplatin at a dose killing half of control-siRNA cells; exact dose and duration not given", "detection": "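Shift in cisplatin death relative to control siRNA, from -50 (all cells die) to +50 (no cells die); siRNAs harmful on their own scored 0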", "direction": "two-siRNA summed score (-2 to +2): higher = both siRNAs protect from cisplatin killing; -2 means both sensitise; mean protection from cisplatin (shift in death): higher = protection from cisplatin killing", "hit rule": "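siRNAs harmful alone (LDH or WST-1) get 0; others get +1 for less and -1 for more cisplatin killing; genes are active when the two siRNAs give the same sign, summing to ±2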", "meaning of the calls": "active = both siRNAs shift cisplatin killing the same way; inactive = no consistent shift, or siRNA harmful alone", "note": "Here is an unselected part of about 23,000 reagents. Of all reagents, 455 (2%) got an active call. 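Active includes both protection and sensitisation; some change values fall well beyond the stated -50 to +50 range.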 A number with no mark means an inactive call. The numbers tell different reagents against one gene apart. Further read-outs or replicates are left out here. Reagent sequences are not shown. Not stated in the record: the amount of reagent."}
{"Gene": "ZAN", "reagent": 1, "two-siRNA summed score (-2 to +2)": 0, "mean protection from cisplatin (shift in death) (%)": -4.4}
{"Gene": "FAM9B", "reagent": 1, "two-siRNA summed score (-2 to +2)": 0, "mean protection from cisplatin (shift in death) (%)": 0.5}
{"Gene": "RSL1D1", "reagent": 1, "two-siRNA summed score (-2 to +2)": 1, "mean protection from cisplatin (shift in death) (%)": 26.7}
{"Gene": "PRF1", "reagent": 1, "two-siRNA summed score (-2 to +2)": 0, "mean protection from cisplatin (shift in death) (%)": -2}
{"Gene": "CREBRF", "reagent": 1, "two-siRNA summed score (-2 to +2)": 0, "mean protection from cisplatin (shift in death) (%)": -4.4}
{"Gene": "NCOA6", "reagent": 1, "two-siRNA summed score (-2 to +2)": 0, "mean protection from cisplatin (shift in death) (%)": -16.2}
{"Gene": "NECAB3", "reagent": 1, "two-siRNA summed score (-2 to +2)": 0, "mean protection from cisplatin (shift in death) (%)": 12.2}
{"Gene": "LOC442397", "reagent": 1, "two-siRNA summed score (-2 to +2)": 0, "mean protection from cisplatin (shift in death) (%)": 1.8}
{"Gene": "ARMC2", "reagent": 1, "two-siRNA summed score (-2 to +2)": 0, "mean protection from cisplatin (shift in death) (%)": 7.7}
{"Gene": "CAMSAP3", "reagent": 1, "two-siRNA summed score (-2 to +2)": 0, "mean protection from cisplatin (shift in death) (%)": 1.8}
{"Gene": "SUPT20H", "reagent": 1, "two-siRNA summed score (-2 to +2)": 0, "mean protection from cisplatin (shift in death) (%)": 5.5}
{"Gene": "SUPT20H", "reagent": 2, "two-siRNA summed score (-2 to +2)": 0, "mean protection from cisplatin (shift in death) (%)": 15}
{"Gene": "H4C7", "reagent": 1, "two-siRNA summed score (-2 to +2)": 1, "mean protection from cisplatin (shift in death) (%)": 9.5}
{"Gene": "SLC9A2", "reagent": 1, "two-siRNA summed score (-2 to +2)": 0, "mean protection from cisplatin (shift in death) (%)": 12.1}
{"Gene": "SLC38A9", "reagent": 1, "two-siRNA summed score (-2 to +2)": 1, "mean protection from cisplatin (shift in death) (%)": -0.5}

The list goes on (4 carried over from the part before).
{"Gene": "SUPT20H", "reagent": 2, "two-siRNA summed score (-2 to +2)": 0, "mean protection from cisplatin (shift in death) (%)": 15}
{"Gene": "H4C7", "reagent": 1, "two-siRNA summed score (-2 to +2)": 1, "mean protection from cisplatin (shift in death) (%)": 9.5}
{"Gene": "SLC9A2", "reagent": 1, "two-siRNA summed score (-2 to +2)": 0, "mean protection from cisplatin (shift in death) (%)": 12.1}
{"Gene": "SLC38A9", "reagent": 1, "two-siRNA summed score (-2 to +2)": 1, "mean protection from cisplatin (shift in death) (%)": -0.5}
{"Gene": "LOC144983", "reagent": 1, "two-siRNA summed score (-2 to +2)": 0, "mean protection from cisplatin (shift in death) (%)": 9}
{"Gene": "DTNBP1", "reagent": 1, "two-siRNA summed score (-2 to +2)": 1, "mean protection from cisplatin (shift in death) (%)": 21.9}
{"Gene": "POU3F2", "reagent": 1, "two-siRNA summed score (-2 to +2)": -1, "mean protection from cisplatin (shift in death) (%)": -20.1}
{"Gene": "SACK1B", "reagent": 1, "two-siRNA summed score (-2 to +2)": 1, "mean protection from cisplatin (shift in death) (%)": 14.5}
{"Gene": "CDH5", "reagent": 1, "two-siRNA summed score (-2 to +2)": 0, "mean protection from cisplatin (shift in death) (%)": -2.9}
{"Gene": "STATH", "reagent": 1, "two-siRNA summed score (-2 to +2)": 0, "mean protection from cisplatin (shift in death) (%)": 10.1}
{"Gene": "PXYLP1", "reagent": 1, "two-siRNA summed score (-2 to +2)": 0, "mean protection from cisplatin (shift in death) (%)": 7.9}
{"Gene": "SLC4A8", "reagent": 1, "two-siRNA summed score (-2 to +2)": 0, "mean protection from cisplatin (shift in death) (%)": 2.2}
{"Gene": "AP2M1", "reagent": 1, "two-siRNA summed score (-2 to +2)": 0, "mean protection from cisplatin (shift in death) (%)": -9.1}
{"Gene": "DTD2", "reagent": 1, "two-siRNA summed score (-2 to +2)": 0, "mean protection from cisplatin (shift in death) (%)": -3.5}
{"Gene": "PDE6C", "reagent": 1, "two-siRNA summed score (-2 to +2)": 0, "mean protection from cisplatin (shift in death) (%)": -2.3}
{"Gene": "PCDH7", "reagent": 1, "two-siRNA summed score (-2 to +2)": 1, "mean protection from cisplatin (shift in death) (%)": 13.9}
{"Gene": "LOC440092", "reagent": 1, "two-siRNA summed score (-2 to +2)": 1, "mean protection from cisplatin (shift in death) (%)": 7.7}
{"Gene": "CDC7", "reagent": 1, "two-siRNA summed score (-2 to +2)": "-2 (active)", "mean protection from cisplatin (shift in death) (%)": -22.9}
{"Gene": "TM9SF4", "reagent": 1, "two-siRNA summed score (-2 to +2)": 1, "mean protection from cisplatin (shift in death) (%)": 6.5}
{"Gene": "NPTXR", "reagent": 1, "two-siRNA summed score (-2 to +2)": 0, "mean protection from cisplatin (shift in death) (%)": -1.4}
